Experimental data reported in PubChem BioAssay (Tox21).
Several values for one entry are separate records, joined by “and”; a condition that tells them apart may be missing. A call without a number means that no potency is given here. Equal entries are not always repeated. Inconclusive means that the source gave no clear call. Such entries were picked first, then a sample of the others. For some of these results: Potencies of inconclusive entries are doubtful fits and often do not repeat. Activity calls are given as the source filed them. Unless noted, the call rests on the fitted dose curve.

The chains behind the UniProt entries cited, without tags or fusion partners. Where a name states a change or a piece, a line headed by the entry shows the natural chain unless it says otherwise.
UniProt P28223, whole entry, looked up: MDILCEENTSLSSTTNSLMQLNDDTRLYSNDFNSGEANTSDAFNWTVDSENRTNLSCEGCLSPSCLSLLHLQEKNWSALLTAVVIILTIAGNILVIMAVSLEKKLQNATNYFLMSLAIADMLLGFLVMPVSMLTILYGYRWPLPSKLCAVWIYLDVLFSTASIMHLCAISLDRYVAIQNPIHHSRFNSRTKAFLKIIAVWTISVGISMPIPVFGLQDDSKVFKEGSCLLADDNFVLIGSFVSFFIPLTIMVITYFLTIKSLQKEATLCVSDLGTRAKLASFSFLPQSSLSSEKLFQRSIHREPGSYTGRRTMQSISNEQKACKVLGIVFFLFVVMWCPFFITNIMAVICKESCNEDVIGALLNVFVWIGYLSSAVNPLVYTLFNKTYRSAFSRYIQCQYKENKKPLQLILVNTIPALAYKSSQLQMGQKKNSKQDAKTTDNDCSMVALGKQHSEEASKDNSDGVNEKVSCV
UniProt P14416, whole entry, looked up: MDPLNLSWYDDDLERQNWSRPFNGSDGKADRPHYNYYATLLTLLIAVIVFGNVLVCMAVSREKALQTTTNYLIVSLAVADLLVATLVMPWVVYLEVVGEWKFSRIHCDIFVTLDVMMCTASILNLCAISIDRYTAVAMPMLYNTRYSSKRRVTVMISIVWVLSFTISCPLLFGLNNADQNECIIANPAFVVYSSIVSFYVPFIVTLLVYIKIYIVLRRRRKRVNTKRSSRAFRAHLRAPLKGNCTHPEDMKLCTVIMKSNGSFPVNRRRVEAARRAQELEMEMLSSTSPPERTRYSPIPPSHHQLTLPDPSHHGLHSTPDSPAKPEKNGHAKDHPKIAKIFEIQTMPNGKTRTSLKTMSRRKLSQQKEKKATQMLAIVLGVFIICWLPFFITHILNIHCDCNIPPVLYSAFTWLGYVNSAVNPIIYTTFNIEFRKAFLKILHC
UniProt P11229: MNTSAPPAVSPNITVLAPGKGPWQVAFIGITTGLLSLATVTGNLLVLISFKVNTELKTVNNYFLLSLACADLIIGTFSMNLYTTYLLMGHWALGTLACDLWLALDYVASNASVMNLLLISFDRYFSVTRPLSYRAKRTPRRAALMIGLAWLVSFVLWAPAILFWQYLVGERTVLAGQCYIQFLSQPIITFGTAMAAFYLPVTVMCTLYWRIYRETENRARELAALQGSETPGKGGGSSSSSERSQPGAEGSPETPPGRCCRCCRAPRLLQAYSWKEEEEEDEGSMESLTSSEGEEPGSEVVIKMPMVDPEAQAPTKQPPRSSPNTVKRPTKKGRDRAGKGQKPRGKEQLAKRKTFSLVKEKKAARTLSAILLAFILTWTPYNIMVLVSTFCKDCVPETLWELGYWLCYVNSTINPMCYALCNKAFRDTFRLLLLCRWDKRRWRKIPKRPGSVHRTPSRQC

Columns and labels:
[1] = p53 small molecule agonists, cell-based qHTS assay with human liver microsomes: qHTS cell viability counter screen (AID 1963579); further: nearly all actives have a fitted effect of over 45% in size; further: potency means the concentration at half of the fitted maximal effect
In short: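 HLM-supplemented (0.5 mg/mL final) and NADPH-supplemented (0.5 mg/mL final) p53RE-bla cultures, 4,000 cells per well, were dosed with compounds in DMSO for 16 h at 37 C; luminescent ATP detection (CellTiter-Glo, 30 min, room temperature) quantified surviving cells.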

[2] = cAMP Responsive Elements (CRE) small molecule antagonists, cell-based qHTS assay (AID 1963591; active means well fitted inhibition curve with a large enough effect in the signal ratio in the repeat runs, not every such curve was filed as active; inconclusive means weak or mixed curves, or effect the other way; the % refers to the signal ratio; further: potency means the concentration at half of the fitted maximal effect); details: CRE-bla HEK293T, beta-lactamase FRET ratio; activity change, negative = inhibition: at 92.4 µM (top of the series) unless noted
In short: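 qHTS in CRE-bla HEK 293T cells: compound in DMSO, then 0.25 uM NKH477 (final), 3 h at 37 °C/5% CO2; beta-lactamase FRET read-out after 2 h substrate incubation.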

[3] = target: Beta-2 adrenergic receptor (Homo sapiens) (UniProt P07550); assay: Adrenergic beta2 receptor (ADRB2) small molecule agonists, cell-based qHTS assay (AID 1963593); details: CHO-ADRB2 cells, cAMP HTRF, 30 min; activation: at 92.4 µM (top of the series) unless noted; further: potency means the concentration at half of the fitted maximal effect;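 on activation: CHO cells stably overexpressing human ADRB2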
In short: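 CHO cells stably over-expressing ADRB2 were plated overnight at 37C, then dosed with compounds plus a stimulation mix containing 100uM IBMX and 25uM Ro-20-1724 for 0.5hr at room temperature. cAMP was measured by HTRF competition, 1hr.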

[4] = target: 5-hydroxytryptamine receptor 2A (Homo sapiens) (UniProt P28223); assay: 5-hydroxytryptamine receptor 2A (HTR2A) small molecule agonists, cell-based qHTS assay (AID 1963587); details: HTR2A-CHO cells, calcium flux fluorescence, agonist mode; activation: at 76.8 µM (top of the series); further: nearly all actives have a fitted effect of over 30% in size; further: potency means the concentration at half of the fitted maximal effect
In short: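 Kinetic calcium-flux fluorescence (2 min, 1 sec intervals) after compound addition in agonist mode. HTR2A-CHO cells were cultured 18 h, then dye-loaded 1 h at 37 C.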

[5] = cAMP Responsive Elements (CRE) small molecule agonists, cell-based qHTS assay (AID 1963590); details: CRE-bla HEK293T, beta-lactamase FRET ratio, 3 h; activation: at 92.4 µM (top of the series) unless noted; further: potency means the concentration at half of the fitted maximal effect
In short: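 FRET-based beta-lactamase readout (LiveBLAzer B/G, 2 h RT) quantified CRE activation in HEK 293T CRE-bla cells after 3 h treatment with DMSO-dissolved compounds.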

[6] = target: 5-hydroxytryptamine receptor 2A (Homo sapiens) (UniProt P28223); assay: 5-hydroxytryptamine receptor 2A (HTR2A) small molecule antagonists, cell-based qHTS assay (AID 1963586); further: potency means the concentration at half of the fitted maximal effect; nearly all actives have a fitted effect of over 45% in size
In short: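 Antagonist-mode intracellular calcium assay: DOI (4 nM) added after 5 min compound pre-incubation at room temperature to dye-loaded HTR2A-CHO cells. Fluorescence followed for 3 min, sampled every second.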

[7] = target: D(2) dopamine receptor (Homo sapiens) (UniProt P14416); assay: Dopamine D2 receptor (DRD2) small molecule agonists, cell-based qHTS assay (AID 1963594); details: HEK293-DRD2 cAMP HTRF, agonist mode, 30 min; activation: at 92.4 µM (top of the series) unless noted; further: nearly all actives have a fitted effect of over 35% in size
In short: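 cAMP accumulation in DRD2-HEK293 cells measured by HTRF after 1 h detection; compounds added 10 min before NKH477 (200nM […]) forskolin-analogue stimulation, 30 min at room temperature, with Ro20-1724 present at 0.1 mM final.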

[8] = p53 small molecule agonists, cell-based qHTS assay (AID 1963582; active means well fitted activation curve with a large enough effect in the signal ratio in the repeat runs, not every such curve was filed as active; inconclusive means weak or mixed curves; the % refers to the signal ratio); details: HCT-116 p53RE-bla reporter, beta-lactamase FRET ratio, 16 h; activation: at 66 µM (top of the series) unless noted
In short: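 Agonist activity was scored from beta-lactamase FRET fluorescence in p53RE-bla cells treated 16 h at 37 C with compounds in DMSO, substrate incubation being 2 h at room temperature.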

[9] = target: Beta-2 adrenergic receptor (Homo sapiens) (UniProt P07550); assay: Adrenergic beta2 receptor (ADRB2) small molecule antagonists, cell-based qHTS assay (AID 1963592); details: CHO-ADRB2 cells, isoproterenol-stimulated cAMP HTRF ratio, 0.5 h; activity change, negative = inhibition: at 92.4 µM (top of the series) unless noted; further: nearly all actives have a fitted effect of over 50% in size
In short: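 Cells (CHO, stable ADRB2 overexpression) incubated 18-20hr at 37C; compounds added from DMSO; agonist mix (1nM isoproterenol, 100uM IBMX, 25uM Ro-20-1724) added; 0.5hr RT; d2-cAMP and anti-cAMP-cryptate added; 1hr RT; 665/615 nm read.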

[10] = target: Muscarinic acetylcholine receptor M1 (Homo sapiens) (UniProt P11229); assay: Cholinergic receptor muscarinic 1 (CHRM1) small molecule antagonists, cell-based qHTS assay (AID 1963588); further: nearly all actives have a fitted effect of over 40% in size; further: potency means the concentration at half of the fitted maximal effect
In short: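 CHRM1-CHO calcium-flux assay, antagonist mode. Cells were seeded 18 h, dye-loaded 1 h at 37 C and given compound for 5 min at RT, then acetylcholine was added at 50nM. FDSS fluorescence was read 3 min; 15 concentrations, three runs.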

[11] = target: D(2) dopamine receptor (Homo sapiens) (UniProt P14416); assay: Dopamine D2 receptor (DRD2) small molecule antagonists, cell-based qHTS assay (AID 1963595; active means well fitted inhibition curve with a large enough effect in the signal ratio in the repeat runs, with a control signal flat; inconclusive means weak or mixed curves, or effect the other way; the % refers to the signal ratio; further: potency means the concentration at half of the fitted maximal effect); details: HEK293-DRD2 cAMP HTRF antagonist mode; activity change, negative = inhibition: at 92.4 µM (top of the series) unless noted
In short: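 In this cell-based antagonist screen, compounds act for 10 min at room temperature before a 30 min challenge with 12 nM quinpirole and 200 nM NKH477. cAMP is quantified by HTRF competition in DRD2-HEK293 cells containing 0.1 mM Ro20-1724.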

**Q.** For `O=c1c2ccccc2c(=O)c2c1cc(Cl)c1[nH]c3c([nH]c12)c(Cl)cc1c(=O)c2ccccc2c(=O)c13`, which Potency [1] is on record?
**A.** Its Potency is “inactive”.

**Q.** And the Potency [2]?
**A.** The Potency was “inactive”.

**Q.** And the Potency [3]?
**A.** Its Potency is “inactive”.

**Q.** Which results are given for `CN(C)NC(=O)CCC(=O)O`?
**A.** Potency [1]: inactive; Potency [3]: inactive

**Q.** With `CCOC(=O)C(Cl)C(C)=O` (stereo not drawn) as the compound, how does the Potency [1] read?
**A.** The Potency was “inactive”.

**Q.** What about the Potency [4] of the same compound?
**A.** Its Potency is inconclusive: 55.6 µM [activator, single point].

**Q.** What about the Potency [5] of the same compound?
**A.** The Potency was “inactive”.

**Q.** What about the activation [3] of the same compound?
**A.** Its activation is inconclusive: 11.2%.

**Q.** For `CC(=[OH+])/C=C(/C)[O-].CC(=[OH+])/C=C(\C)[O-].CC(=[OH+])/C=C(\C)[O-].[Fe]`, which Potency [1] is on record?
**A.** The Potency was “inactive”.

**Q.** What about the Potency [2] of the same compound?
**A.** The Potency was “inactive”.

**Q.** And the activation [3]?
**A.** Its activation is inconclusive: 12.5%.

**Q.** For `CCC1(c2ccc(N)cc2)CCC(=O)NC1=O` (stereo not drawn), which Potency [1] is on record?
**A.** Its Potency is inconclusive: 0.0793 µM [cytotoxic, single point].

**Q.** What about the Potency [3] of the same compound?
**A.** The Potency was “inactive”.

**Q.** Which Potency [1] does the source give for `CNC(=O)/C=C(\C)OP(=O)(OC)OC` here?
**A.** Its Potency is inconclusive: 0.912 µM [cytotoxic, single point].

**Q.** And the activation [3]?
**A.** Its activation is inconclusive: -15.8%.

**Q.** What does the source list for `CC(=O)Nc1cc([As](=O)(O)O)ccc1O`?
**A.** Potency [1]: inactive; Potency [6]: inconclusive: 0.183 µM [inhibitor, single point]; Potency [5]: inactive; activation [3]: inconclusive: 7.11% [at 42.5 µM]; activation [7]: inconclusive: -17% [at 42.5 µM]

**Q.** With `Oc1ccc2[nH]cc(CCCCN3CC=C(c4ccccc4)CC3)c2c1` as the compound, how does the Potency [1] read?
**A.** The Potency was “inactive”.

**Q.** What about the Potency [6] of the same compound?
**A.** Its Potency is active: 0.818 µM.

**Q.** What about the Potency [5] of the same compound?
**A.** The Potency was inconclusive: 29.8 µM [rising, partial curve, poor fit].

**Q.** What about the activity change, negative = inhibition [2] of the same compound?
**A.** Its activity change, negative = inhibition is inconclusive: 1.31% [at 42.4 µM].

**Q.** What about the Potency [3] of the same compound?
**A.** The Potency was inconclusive: 11.9 µM [inhibitor, partial curve].

**Q.** With `CCC(CC)(CNC(=O)CCCO)c1cccc(OC)c1` as the compound, how does the Potency [1] read?
**A.** Its Potency is inconclusive: 8.9 µM [rising, single point].

**Q.** And the Potency [8]?
**A.** Its Potency is “inactive”.

**Q.** And the Potency [3]?
**A.** Its Potency is inconclusive: 0.298 µM [inhibitor, single point].

**Q.** Which Potency [1] does the source give for `CCOC(=O)c1cncn1C(C)c1ccccc1` (stereo not drawn) here?
**A.** Its Potency is “inactive”.

**Q.** What about the Potency [4] of the same compound?
**A.** Its Potency is “inactive”.

**Q.** Which Potency [1] does the source give for `C=C(C)C(=O)OCC1CO1` (stereo not drawn) here?
**A.** The Potency was “inactive”.

**Q.** And the Potency [5]?
**A.** The Potency was “inactive”.

**Q.** And the Potency [9]?
**A.** Its Potency is “inactive”.

**Q.** And the Potency [3]?
**A.** Its Potency is “inactive”.

**Q.** Which results are given for `C[N+](=O)[O-]`?
**A.** Potency [1]: inactive; activation [3]: inconclusive: 10.5%

**Q.** With `CN(C)CCc1c[nH]c2cccc(OP(=O)(O)O)c12` as the compound, how does the Potency [1] read?
**A.** The Potency was “inactive”.

**Q.** And the Potency [6]?
**A.** Its Potency is active: 0.0735 µM.

**Q.** What about the Potency [10] of the same compound?
**A.** Its Potency is “inactive”.

**Q.** And the Potency [3]?
**A.** The Potency was “inactive”.

**Q.** For `OC(c1ccccc1)(c1ccccc1)C1CCNCC1`, which Potency [1] is on record?
**A.** The Potency was inconclusive: 1.12 µM [rising, partial curve, poor fit].

**Q.** And the Potency [6]?
**A.** The Potency was inconclusive: 5.16 µM [inhibitor, single point].

**Q.** What about the Potency [10] of the same compound?
**A.** Its Potency is active: 4.6 µM.

**Q.** What about the Potency [3] of the same compound?
**A.** The Potency was “inactive”.

**Q.** Which Potency [1] does the source give for `O=C(O)c1cc[c]([Hg][Cl])cc1` here?
**A.** Its Potency is inconclusive: 3.63 µM [rising, full curve].

**Q.** What about the Potency [5] of the same compound?
**A.** The Potency was inconclusive: 68.6 µM [rising, single point].

**Q.** And the Potency [2]?
**A.** The Potency was inconclusive: 68.6 µM [single point].

**Q.** And the activation [3]?
**A.** Its activation is inconclusive: 39.5%.

**Q.** What about the Potency [11] of the same compound?
**A.** Its Potency is inconclusive: 61.1 µM [inhibitor, partial curve, poor fit].

**Q.** With `c1ccc2sc(SNC3CCCCC3)nc2c1` as the compound, how does the Potency [1] read?
**A.** The Potency was “inactive”.

**Q.** And the activation [3]?
**A.** Its activation is inconclusive: 16.2%.

**Q.** For `COc1ccc2c3c1O[C@H]1[C@H](O)CC[C@H]4[C@@H](C2)N(C)CC[C@@]341`, which Potency [1] is on record?
**A.** Its Potency is “inactive”.

**Q.** What about the Potency [8] of the same compound?
**A.** Its Potency is “inactive”.

**Q.** And the Potency [2]?
**A.** Its Potency is “inactive”.

**Q.** What does the source list for `O=C(O)c1nn(Cc2ccc(Cl)cc2Cl)c2ccccc12`?
**A.** Potency [1]: inactive; Potency [6]: inconclusive: 41.8 µM [inhibitor, single point]; Potency [2]: inconclusive: 30.4 µM [fluorescent, partial curve] and inconclusive: 26.6 µM [fluorescent]; Potency [3]: inactive; Potency [7]: inactive

**Q.** Which results are given for `O=[N+]([O-])c1cc([As](=O)(O)O)ccc1O`?
**A.** Potency [1]: inconclusive: 51.3 µM [cytotoxic, single point]; Potency [5]: inactive; Potency [3]: inactive

**Q.** Which results are given for `CCCC[n+]1ccccc1C`?
**A.** Potency [1]: inactive; Potency [4]: inconclusive: 43.9 µM [activator, partial curve, poor fit]; Potency [10]: inconclusive: 18.8 µM [inhibitor, partial curve, poor fit] and inconclusive: 42.7 µM [inhibitor, partial curve, poor fit]; Potency [5]: inactive; Potency [3]: inconclusive: 27.3 µM [inhibitor, single point]; activation [3]: inconclusive: -37% and inconclusive: 9.1%

**Q.** With `CN1CCN(C(=O)O[C@H]2c3nccnc3C(=O)N2c2ccc(Cl)cn2)CC1` as the compound, how does the Potency [1] read?
**A.** Its Potency is inconclusive: 11.2 µM [rising, single point].

**Q.** And the Potency [5]?
**A.** Its Potency is inconclusive: 11.9 µM [rising, partial curve, poor fit].

**Q.** What about the Potency [2] of the same compound?
**A.** Its Potency is “inactive”.

**Q.** What about the activation [3] of the same compound?
**A.** The activation was inconclusive: -30.1% [at 42.5 µM].
